# Reference: paper PMC6542935
# Results are given in words; binding and its absence hold for the method and conditions named.
# T1: LAX PANICLE 1 (rice (Oryza sativa)) (UniProt Q7XAQ6)
# T1 sequence: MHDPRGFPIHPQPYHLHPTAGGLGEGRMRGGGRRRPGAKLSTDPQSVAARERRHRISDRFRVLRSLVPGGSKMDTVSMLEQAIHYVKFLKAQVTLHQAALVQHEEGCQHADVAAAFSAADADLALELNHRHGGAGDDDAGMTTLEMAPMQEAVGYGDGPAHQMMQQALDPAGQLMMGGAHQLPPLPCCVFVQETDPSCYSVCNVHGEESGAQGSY
# B1: OsSPL7 (protein, UniProt Q7XT42 1-360)
# chain: MEGNGCGGSGATPRGVVGMHWAPVVTSPPSPQPPFLPPAPCRPDVQMQQQGGLTCLKLGKRPCFWGGDGAGQVAQGSGGGGGGGGGGSADQGKRKEKAATAVPVVPRCQVEGCDITLQGVKEYHRRHKVCEVHAKAPRVVVHGTEQRFCQQCSRFHVLAEFDDAKKSCRRRLAGHNERRRRSNASEAMARGSAHPHGMPVLGHGFPPYGLPTSSAGALSLLSSARATGPWLMPTPDISARSSAALDELIAENRAALLSWQFFSDRQPPPAGRPTGRSPGSETAGGWHAHLQARPPPPGAGGQHENQSGHVTLDLMQATTAAGGSGAPFRPVPARPPKEGGDAGCTSDAWTPSPMEGARVV
# Target: T1, LAX PANICLE 1 (rice (Oryza sativa))
# Assay: two-hybrid; OsSPL7 as prey in pGAD-T7, LAX1 or LAX2 as bait in pGBK-T7; yeast on SD-LT and SD-LTAH media (Clontech system)
binder,measurement,value
B1,binding,no binding
